Reference: PubChem BioAssay AID192 (DTP/NCI, 2004)
The list is a part of this screen's results and no random one: it gathers tests that were run many times, whatever their T/C, doses with no T/C, and many T/C values between a quarter and a half above the control. Further doses and runs are listed elsewhere. T/C: endpoint of the treated group in % of that of the vehicle group. Some entries give survivors of the animals treated and no T/C: the source files T/C as zero there, which appears to mark a toxic dose or a test without result, not a measured value. Some survivor counts are full or nearly so, which does not show that the dose was tolerated: survival well below the control is almost never listed, so the zero probably covers shortened survival too. Survivors were counted at the toxicity check, usually on the fifth day, unless a day is given; later deaths do not show. Schedule codes are those of the source, taken here to give the interval after Q, in days (D) or hours (H), and the number of doses after X. Some doses were run more than once; the results are listed from low to high. Where survival is the endpoint, this PubChem deposit counts one and a half times the control or more as active, and values a quarter to a half above the control carry no call in these data; other NCI protocols may use other cut-offs. Some T/C values are followed by the survivors on the day toxicity was checked, most often the fifth; without a count, all were alive then. Peptide text beside a SMILES is read from it. * marks the point of attachment. Trt = c1ccc(C(c2ccccc2)(c2ccccc2)*)cc1; Cbz = O=C(OCc1ccccc1)*

Test system: BDF1 mice, B16 melanoma ip, median survival T/C
Assay: NCI In Vivo Anticancer Drug Screen. Data for tumor model B16 Melanoma (intraperitoneal) in B6D2F1 (BDF1) mice
Settings: T/C endpoint: median survival time, higher T/C = longer survival
In short: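 Read-out: survival or tumor size, given as treated/control ratio. Controls received vehicle only; animals bore transplantable tumors.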

[1] = dose: 100.0 mg/kg/injection, schedule: Q01DX009 (ip), vehicle: Klucel (hydroxypropylcellulose) (HPC)
[2] = dose: 50.0 mg/kg/injection, schedule: Q01DX009 (ip), vehicle: Klucel (hydroxypropylcellulose) (HPC)
[3] = dose: 200.0 mg/kg/injection, schedule: Q01DX009 (ip), vehicle: Klucel (hydroxypropylcellulose) (HPC)
[4] = dose: 100.0 mg/kg/injection, schedule: Q01DX009 (ip), vehicle: saline
[5] = dose: 400.0 mg/kg/injection, schedule: Q01DX009 (ip), vehicle: saline with Tween-80
[6] = dose: 25.0 mg/kg/injection, schedule: Q01DX009 (ip), vehicle: saline
[7] = dose: 50.0 mg/kg/injection, schedule: Q01DX009 (ip), vehicle: saline
[8] = dose: 6.25 mg/kg/injection, schedule: Q01DX009 (ip), vehicle: Klucel (hydroxypropylcellulose) (HPC)
[9] = dose: 12.5 mg/kg/injection, schedule: Q01DX009 (ip), vehicle: Klucel (hydroxypropylcellulose) (HPC)
[10] = dose: 25.0 mg/kg/injection, schedule: Q01DX009 (ip), vehicle: Klucel (hydroxypropylcellulose) (HPC)
[11] = dose: 400.0 mg/kg/injection, schedule: Q01DX009 (ip), vehicle: Klucel (hydroxypropylcellulose) (HPC)

## C[C@@H]1C[C@](O)([C@@H](C)Cl)C(=O)O[C@@H]2CCN3CC=C(COC(=O)[C@]1(C)O)[C@H]23
dose: 44.0 mg/kg/injection, schedule: Q01DX009 (ip), vehicle: saline
  survivor count: 6 of 6

## CN1CCN(CCNc2ccc(CO)c3sc4ccccc4c(=O)c23)CC1
[1]
  survivor count: 10 of 10
dose: 150.0 mg/kg/injection, schedule: Q01DX009 (ip), vehicle: Klucel (hydroxypropylcellulose) (HPC)
  survivor count: 10 of 10

## CCC[CH2][Hg][O]C(C)=O
dose: 2.5 mg/kg/injection, schedule: Q01DX009 (ip), vehicle: other
  survivor count: 10 of 10
dose: 5.0 mg/kg/injection, schedule: Q01DX009 (ip), vehicle: other
  survivor count: 10 of 10
dose: 10.0 mg/kg/injection, schedule: Q01DX009 (ip), vehicle: other
  survivor count: 7 of 10

## Cc1cc(Cl)ccc1NC(=O)COc1ccc(Cl)cc1
[2]
  survivor count: 10 of 10
[1]
  survivor count: 10 of 10
[3]
  survivor count: 10 of 10

## CC1=CC(=O)N(NC(N)=O)C1=O
[4]
  survivor count: 7 of 10

## CC(C)=Cc1ccccc1
[5]
  survivor count: 9 of 10
dose: 400.0 mg/kg/injection, schedule: Q04DX003 (ip), vehicle: saline with Tween-80
  survivor count: 10 of 10

## CCOC(=O)C(NC(=O)C(Cc1ccc(N(CCCl)CCCl)cc1)NC(C)=O)C(C)C (configuration not stated)
dose: 12.5 mg/kg/injection, schedule: Q01DX009 (ip), vehicle: saline
  survivor count: 10 of 10
[6]
  survivor count: 10 of 10
[7]
  survivor count: 5 of 10
dose: 100.0 mg/kg/injection, schedule: Q04DX003 (ip), vehicle: saline
  survivor count: 5 of 10
dose: 200.0 mg/kg/injection, schedule: Q04DX003 (ip), vehicle: saline
  survivor count: 1 of 10
dose: 400.0 mg/kg/injection, schedule: Q04DX003 (ip), vehicle: saline
  survivor count: 1 of 10

## CCOC(=O)C(Cc1ccc(O)cc1)NP(=O)(OCCCl)OCCCl (configuration not stated)
dose: 100.0 mg/kg/injection, schedule: Q04DX003 (ip), vehicle: Klucel (hydroxypropylcellulose) (HPC)
  survivor count: 10 of 10

## CS(=O)(=O)OCCN(CCOS(C)(=O)=O)c1ccc(C=Nc2ccc3oc(=O)ccc3c2)cc1
[8]
  survivor count: 10 of 10
[9]
  survivor count: 10 of 10
[10]
  T/C: 142 % of control
  survivor count: 10 of 10
[2]
  survivor count: 10 of 10

## CC(=O)N(NC(C)C)C(C)C
[4]
  survivor count: 9 of 10

## COC(=O)C1C(O)C(C)C(O)C(C)/C=C\C=C(C)C(=O)Nc2c(C)c(OC(C)=O)c3c(c2O)C(=O)C(C)=C2OCOC(=C23)C(C)=CC(C)(O)C(O)C(C)C1O (configuration not stated)
[1]
  survivor count: 10 of 10
[3]
  survivor count: 10 of 10
[11]
  survivor count: 1 of 10

## COC(=O)C(CSC(c1ccccc1)(c1ccccc1)c1ccccc1)NC(=O)C(CC(N)=O)NC(=O)OCc1ccccc1 (stereo not drawn) (Cbz-Asn-Cys(Trt)-OMe; configuration not given here)
dose: 50.0 mg/kg/injection, schedule: Q01DX009 (ip), vehicle: distilled water + Tween-80
  T/C: 128 % of control
dose: 100.0 mg/kg/injection, schedule: Q01DX009 (ip), vehicle: distilled water + Tween-80
  T/C: 148 % of control
dose: 200.0 mg/kg/injection, schedule: Q01DX009 (ip), vehicle: distilled water + Tween-80
  T/C: 145 % of control
dose: 400.0 mg/kg/injection, schedule: Q01DX009 (ip), vehicle: distilled water + Tween-80
  survivor count: 9 of 10 and 10 of 10

## FC(F)(F)c1ccc2c(c1)N(CCCN1CCN(CCOc3ccccc3)CC1)c1ccccc1S2
dose: 0.5 mg/kg/injection, schedule: Q01DX009 (ip), vehicle: saline
  T/C: 125 % of control [9 of 10 alive]
dose: 1.0 mg/kg/injection, schedule: Q01DX009 (ip), vehicle: saline
  T/C: 134 % of control [9 of 10 alive]
dose: 4.0 mg/kg/injection, schedule: Q01DX009 (ip), vehicle: saline
  survivor count: 10 of 10

## [Cl][Pd]([Cl])([Cl])[Cl]
[6]
  survivor count: 10 of 10
[7]
  survivor count: 10 of 10
[4]
  survivor count: 3 of 10

## O=C(O)CNC(=O)c1ccc([N+](=O)[O-])cc1
dose: 200.0 mg/kg/injection, schedule: Q01DX009 (ip), vehicle: saline with Tween-80
  survivor count: 6 of 6
[5]
  survivor count: 5 of 6

## O=C(/C(=C\c1ccccc1)CBr)c1ccccc1
dose: 0.75 mg/kg/injection, schedule: Q01DX009 (ip), vehicle: Klucel (hydroxypropylcellulose) (HPC)
  survivor count: 10 of 10
dose: 1.5 mg/kg/injection, schedule: Q01DX009 (ip), vehicle: Klucel (hydroxypropylcellulose) (HPC)
  survivor count: 10 of 10
dose: 3.0 mg/kg/injection, schedule: Q01DX009 (ip), vehicle: Klucel (hydroxypropylcellulose) (HPC)
  survivor count: 10 of 10
[8]
  survivor count: 7 of 10
[9]
  survivor count: 10 of 10
[10]
  survivor count: 2 of 10

## CP(=S)(c1ccccc1)P(C)(=S)c1ccccc1 (configuration not stated)
[1]
  T/C: 128 % of control
[11]
  T/C: 129 % of control

## Clc1ccc(/C=N\N=C\c2ccc(Cl)c(Cl)c2)cc1Cl
[11]
  survivor count: 7 of 10

## C1=NC(c2ccccn2)=NNC(c2ccccn2)=C1c1ccccc1
[3]
  survivor count: 10 of 10

## COc1cc(C=Nc2cccc(C(F)(F)F)c2)ccc1O
[11]
  survivor count: 9 of 10

## C1CCC2OCCOCCOC3CCCCC3OCCOCCOC2C1 (configuration not stated)
[2]
  survivor count: 2 of 10
[1]
  survivor count: 0 of 10

## CCCCCCCCCCCCCCCCCC(=O)OCC(=O)OCC(=O)[C@]1(O)Cc2c(O)c3c(c(O)c2[C@@H](OC2CC(N)C(O)C(C)O2)C1)C(=O)c1c(OC)cccc1C3=O (some centres not stated)
dose: 7.5 mg/kg/injection, schedule: Q01DX001 (ip), vehicle: water
  T/C: 128 % of control
dose: 15.0 mg/kg/injection, schedule: Q01DX001 (ip), vehicle: water
  T/C: 147 % of control
dose: 60.0 mg/kg/injection, schedule: Q01DX001 (ip), vehicle: water
  survivor count: 7 of 10 and 10 of 10
dose: 120.0 mg/kg/injection, schedule: Q01DX001 (ip), vehicle: water
  survivor count: 4 of 10 and 10 of 10

## CCCCCCCCCCNCCC(=O)O
dose: 75.0 mg/kg/injection, schedule: Q01DX009 (ip), vehicle: saline
  survivor count: 9 of 10
dose: 150.0 mg/kg/injection, schedule: Q01DX009 (ip), vehicle: saline
  survivor count: 0 of 10

## C=C1C(O)C2(O)OCC34C(CC5C(C)=CC(=O)C(O)C5(C)C23)OC(=O)C(OC(=O)C(C)(O)CC)C14 (configuration not stated)
dose: 0.12 mg/kg/injection, schedule: Q01DX009 (ip), vehicle: saline + alcohol
  T/C: 127 % of control
dose: 0.25 mg/kg/injection, schedule: Q01DX009 (ip), vehicle: saline + alcohol
  T/C: 149 % of control
dose: 0.5 mg/kg/injection, schedule: Q01DX009 (ip), vehicle: saline + alcohol
  T/C: 140 % of control
dose: 2.0 mg/kg/injection, schedule: Q01DX009 (ip), vehicle: saline + alcohol
  survivor count: 2 of 10

## C1=C(c2ccccc2)CCC1
dose: 200.0 mg/kg/injection, schedule: Q01DX009 (ip), vehicle: saline
  survivor count: 10 of 10

## CN(CCO)C1=C(N2CC2)C(=O)C(N(C)CCO)=C(N2CC2)C1=O
dose: 400.0 micrograms/kg/injection, schedule: Q01DX009 (ip), vehicle: saline
  T/C: 130 % of control
dose: 800.0 micrograms/kg/injection, schedule: Q01DX009 (ip), vehicle: saline
  T/C: 147 % of control

## CCC[CH2][Sn]1([CH2]CCC)[O]OC(c2ccc(OC)cc2)[O]1 (configuration not stated)
dose: 6.25 mg/kg/injection, schedule: Q01DX009 (sc), vehicle: olive oil, sesame oil, peanut oil
  survivor count: 9 of 9
dose: 12.5 mg/kg/injection, schedule: Q01DX009 (sc), vehicle: olive oil, sesame oil, peanut oil
  survivor count: 9 of 10
dose: 25.0 mg/kg/injection, schedule: Q01DX009 (sc), vehicle: olive oil, sesame oil, peanut oil
  survivor count: 4 of 10

## CC1C2Cc3ccc(O)cc3C1(C)CCN2CC1CC1 (configuration not stated)
[3]
  survivor count: 10 of 10
[11]
  survivor count: 5 of 10

## CC(c1c[nH]c2ccccc12)N1CCCCC1 (configuration not stated)
[1]
  survivor count: 3 of 10
